Measured values reported in patent US5872097A, “Oligopeptides with affinity to opioid receptors” (Pharmacia & Upjohn Aktiebolag, priority 1992, dated 1999).
Part of at least one peptide drawing is inferred or uncertain, most often the ends. For part of these data: At least one structure is not confirmed: it was looked up by name or label, or the drawing left a doubt. Bridge positions count the residues as written; N and C are the ends. Square brackets hold non-standard residues; d marks the D form. Ends that are not written are not given here. Peptide text beside a SMILES is read from it. Dab = NCC[C@H](N)C(=O)O

Sequences of proteins named here, by UniProt entry; tags and fusion partners are left off.
UniProt P33535, whole entry: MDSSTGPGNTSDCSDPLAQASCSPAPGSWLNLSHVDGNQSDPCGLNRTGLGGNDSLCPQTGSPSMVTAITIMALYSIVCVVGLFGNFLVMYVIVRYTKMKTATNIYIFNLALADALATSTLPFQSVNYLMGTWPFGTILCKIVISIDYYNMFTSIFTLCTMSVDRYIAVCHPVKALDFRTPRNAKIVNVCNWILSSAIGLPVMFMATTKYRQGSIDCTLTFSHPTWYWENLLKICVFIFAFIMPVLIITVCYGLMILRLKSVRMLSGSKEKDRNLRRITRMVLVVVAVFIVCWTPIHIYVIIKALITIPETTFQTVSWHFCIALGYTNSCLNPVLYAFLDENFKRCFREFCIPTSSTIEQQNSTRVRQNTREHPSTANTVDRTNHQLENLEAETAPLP

Experiments:
μ-receptor = target: T1, μ-receptor (Rattus norvegicus, UniProt P33535); test: (3H)-DAMGO displacement receptor assay; format: binding; details: LIGAND program; for Bmax (binding capacity): (3H)-DAMGO binding; for IC50: displacement of (3H)-DAMGO specific binding, radioligand about 24 x 10^-10 M
T1 construct: from tissue; host or cells: rat brain (homogenate / synaptic plasma membranes, whole brain without cerebellum)
Experimental: In the experiments noted in FIGS. 3 and 4 and in Table 1 (^3 H)-(D-Ala^2,MePhe^4,Gly-ol^5)-enkephalin (DAGO or DAMGO) and (^3 H)-(D-Ala^2,D-Leu^5)-enkephalin (DADL) purchased from Amersham (Buckinghamshire, England) were used as radioligands in a binding assay performed as in Reg.
(§1) The peptides were employed for both receptor tests and bioassays on electrically stimulated guinea pig ileum strips (GPI-tests). The receptor assays were performed in the same manner as above with DAMGO as a radioligand to the μ-receptor. In the assays (^3 H)-DAMGO specific binding was displaced by the different tested substances (10^-5 M to 10^-10 M). […] Ups. […] The magnitude of activity in relation to a standard compound, normorphine was recorded.

[1] = system: electrically stimulated guinea pig ileum strips; details: relative to standard compound normorphine = 1
Experimental: as §1

Molecule: CC(C)C[C@H](NC(=O)[C@H](Cc1ccccc1)NC(=O)[C@@H](C)NC(=O)[C@@H](N)Cc1ccc(O)cc1)C(=O)N[C@@H](CCC(=O)O)C(=O)O [Tyr-D-Ala-Phe-Leu-Glu] (H-Y[dA]FLE-OH)
- Bmax (binding capacity) (μ-receptor): 19.7 pmol

Molecule: YSFLE-NH2 [Tyr-Ser-Phe-Leu-Glu-NH2]
- Bmax (binding capacity) (μ-receptor): 72.5 pmol

Molecule: CSCC[C@H](NC(=O)[C@H](Cc1ccccc1)NC(=O)[C@@H](C)NC(=O)[C@@H](N)Cc1ccc(O)cc1)C(N)=O [Tyr-D-Ala-Phe-Met-NH2, reference compound] (H-Y[dA]FM-NH2)
- Bmax (binding capacity) (μ-receptor): 14.8 pmol

Molecule: CC(C)C[C@@H]1NC(=O)[C@H](Cc2ccccc2)NC(=O)[C@@H](NC(=O)[C@@H](N)Cc2ccc(O)cc2)CCNC(=O)[C@H](CCC(=O)O)NC1=O (H-Y[Dab]FLE; lactam 2-C (inferred); N-terminus assumed)
- IC50 (μ-receptor): 6.19 nM

Molecule: CC(C)C[C@@H]1NC(=O)[C@H](Cc2ccccc2)NC(=O)[C@H](NC(=O)[C@@H](N)Cc2ccc(O)cc2)CSSC[C@@H](C(=O)O)NC1=O (H-Y[dC]FLC-OH; disulfide 2-5)
- Bmax (binding capacity) (μ-receptor): 11.8 pmol
- IC50 (μ-receptor): 11.9 nM

Molecule: CC(C)C[C@@H]1NC(=O)[C@H](Cc2ccccc2)NC(=O)[C@@H](NC(=O)[C@@H](N)Cc2ccc(O)cc2)CSSC[C@@H](C(=O)O)NC1=O (H-YCFLC-OH; disulfide 2-5)
- GPI-test relative activity normorphine = 1 [1]: 0.8
- Bmax (binding capacity) (μ-receptor): 31.6 pmol

Molecule: CC(C)C[C@H](NC(=O)[C@H](Cc1ccccc1)NC(=O)[C@@H](C)NC(=O)[C@@H](N)Cc1ccc(O)cc1)C(N)=O [Tyr-D-Ala-Phe-Leu-NH2, reference compound] (H-Y[dA]FL-NH2)
- Bmax (binding capacity) (μ-receptor): 28.3 pmol
